PubChem BioAssay AID1259282, Sanger Institute, 2017
Aim: 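siRNA screen across the kinome seeking drug combinations lethal to colorectal cancer cells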 (primary screen). System: DIFI human colorectal cancer cell line. Reagent: siRNA pool against human genes. Challenge: anchor drug at a mild dose (BYL719 1 µM, cetuximab 5 µg/ml, trametinib 10 nM) or DMSO vehicle; exposure time not given. Detection: 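Robust z-score and replicate-mean viability versus non-targeting pool without drug, plus a synergy score for each low-dose anchor drug (BYL719, cetuximab, trametinib)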. Reading the numbers: robust z-score, knock-down alone: higher = more viable cells than typical knock-down; viability, knock-down alone: higher = more viable cells; synergy score with trametinib and synergy score with cetuximab and synergy score with BYL719: higher = stronger combined killing with drug. Rule for the call: 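Essential when the robust z-score of the knock-down without drug falls below -3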. Meaning of the calls: active = essential (knock-down alone, z below -3); inactive = not essential.
This is one part, drawn at random, of 794 reagents. In the full data, 11 (1.4%) are marked active. 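Calls flag knock-downs that lower viability without drug; drug synergy appears only in the synergy scores; exposure time not stated.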 Entries without a mark were called inactive. No viability above 1 is reported: the scale is capped. Reagent sequences are not shown. Not given: the amount of reagent, the time to read-out.

| target | robust z-score, knock-down alone | viability, knock-down alone (fraction of control) | synergy score with trametinib | synergy score with cetuximab | synergy score with BYL719 |
| --- | --- | --- | --- | --- | --- |
| FN1 (GeneID 2335) | 0.715 | 1 | 0.0962 | -0.0478 | -0.0664 |
| ADCK2 (GeneID 90956) | 0.715 | 1 | 0.0537 | -0.0112 | -0.0469 |
| PSKH2 (GeneID 85481) | -0.151 | 0.874 | 0.164 | 0.161 | -0.164 |
| DYRK3 (GeneID 8444) | 0.122 | 0.914 | 0.142 | 0.00953 | -0.0432 |
| PTK2 (GeneID 5747) | -1.43 | 0.688 | 0.0838 | 0.0773 | -0.00736 |
| EPHB4 (GeneID 2050) | 0.659 | 0.992 | 0.108 | -0.00942 | -0.226 |
| DGKG (GeneID 1608) | -0.369 | 0.843 | 0.118 | 0.00934 | -0.0658 |
| CSK (GeneID 1445) | 0.715 | 1 | -0.0415 | -0.0954 | -0.111 |
| ITSN1 (GeneID 6453) | -1.92 | 0.618 | -0.162 | -0.242 | -0.195 |
| CTCF (GeneID 10664) | 0.223 | 0.929 | -0.201 | -0.159 | -0.192 |
| RAF1 (GeneID 5894) | -0.362 | 0.844 | 0.283 | 0.136 | 0.0957 |
| MAP2K3 (GeneID 5606) | -0.524 | 0.82 | 0.0191 | 0.0704 | 0.116 |
| PRAG1 (GeneID 157285) | -1.98 | 0.608 | 0.137 | 0.0785 | 0.0116 |
| MAPK15 (GeneID 225689) | 0.715 | 1 | 0.0916 | -0.0198 | -0.0142 |
| FLT4 (GeneID 2324) | -0.135 | 0.877 | -0.0581 | -0.03 | 0.0861 |
| AXIN2 (GeneID 8313) | 0.362 | 0.949 | 0.136 | -0.00145 | -0.103 |
| SPHK1 (GeneID 8877) | -1.27 | 0.711 | 0.113 | 0.0777 | 0.0467 |
| PANK4 (GeneID 55229) | -0.695 | 0.795 | -0.00819 | -0.0631 | -0.118 |
| MLKL (GeneID 197259) | 0.715 | 1 | -0.134 | 0.0171 | -0.256 |
| STK17B (GeneID 9262) | 0.715 | 1 | 0.0535 | 0.00377 | -0.201 |
| CDK4 (GeneID 1019) | -0.909 | 0.764 | 0.128 | -0.0711 | 0.00682 |
| PI4K2B (GeneID 55300) | -0.0478 | 0.889 | 0.136 | 0.0287 | -0.0229 |
| POLR2B (GeneID 5431) | -2.64 | 0.513 | -0.0366 | -0.0196 | -0.121 |
| CRKL (GeneID 1399) | 0.715 | 1 | -0.204 | -0.0155 | -0.0927 |
| ACVR2B (GeneID 93) | 0.715 | 1 | -0.00749 | -0.16 | -0.362 |
| PRKDC (GeneID 5591) | 0.108 | 0.912 | 0.121 | 0.0937 | 0.0774 |
| ERBB3 (GeneID 2065) | -0.246 | 0.86 | 0.154 | 0.0272 | -0.0297 |
| MUSK (GeneID 4593) | -3.1 (active) | 0.446 | 0.0989 | 0.0558 | 0.0488 |
| BRSK1 (GeneID 84446) | 0.715 | 1 | 0.0131 | 0.0635 | -0.0776 |
| MAP3K1 (GeneID 4214) | 0.715 | 1 | -0.14 | -0.121 | -0.253 |
| PMVK (GeneID 10654) | 0.715 | 1 | -0.00957 | -0.0236 | -0.0568 |
| PIP5K1B (GeneID 8395) | 0.715 | 1 | 0.226 | 0.128 | -0.068 |
| AURKA (GeneID 6790) | -1.87 | 0.625 | -0.0579 | -0.0653 | -0.121 |
| GALK2 (GeneID 2585) | -2.85 | 0.482 | 0.0503 | 0.0554 | 0.0667 |
| TGFBR3 (GeneID 7049) | 0.715 | 1 | 0.0368 | 0.0358 | -0.322 |
| DGKQ (GeneID 1609) | -0.116 | 0.879 | 0.0216 | 0.0418 | -0.0596 |
| BPTF (GeneID 2186) | -2.38 | 0.551 | 0.151 | 0.0631 | -0.066 |
| MAP3K21 (GeneID 84451) | 0.171 | 0.921 | 0.00336 | -0.00836 | -0.31 |
| PIK3R3 (GeneID 8503) | 0.715 | 1 | -0.0158 | 0.0153 | -0.0579 |
| MAP3K3 (GeneID 4215) | 0.408 | 0.955 | 0.164 | 0.148 | -0.0425 |
| CAMK2D (GeneID 817) | 0.715 | 1 | -0.159 | -0.14 | -0.307 |
| PIM2 (GeneID 11040) | -0.983 | 0.753 | 0.141 | 0.0808 | 0.0904 |
| TRIO (GeneID 7204) | 0.715 | 1 | -0.209 | -0.0747 | -0.238 |
| AK7 (GeneID 122481) | 0.715 | 1 | -0.0704 | -0.109 | -0.126 |
| RIPK1 (GeneID 8737) | 0.715 | 1 | 0.0352 | -0.0402 | -0.106 |
| TTBK1 (GeneID 84630) | 0.714 | 1 | 0.0921 | 0.0832 | 0.0331 |
| KHK (GeneID 3795) | 0.34 | 0.945 | 0.0484 | -0.0486 | 0.0368 |
| STK38 (GeneID 11329) | -2.11 | 0.59 | -0.013 | -0.0713 | -0.0734 |
| CLK4 (GeneID 57396) | 0.715 | 1 | -0.0245 | -0.0167 | -0.126 |
| MOK (GeneID 5891) | 0.282 | 0.937 | 0.219 | 0.0532 | -0.179 |
